According to US6960454B2, “Methods for making and using a thermophilic enzyme as a β-glycosidase” (Director-General of Agency of Industrial Science and …, priority 1998, dated 2005):
Some entries share one result that the patent states for a list of compounds.

Assay: Optimum temperature
Format: biochemical
Conditions: p-Nph-β-D-Glcp
Protocol: The enzyme reactions were carried out in duplicate at temperatures ranging from 50° C. to 100° C. for 30 min. Optical density measurements at A405 were performed as described for the enzyme assays.

B1: his-tagged BGPh from P. horikoshii (His-BGPh) (Pyrococcus horikoshii OT3) (protein)
chain: MPLKFPEMFLFGTATSSHQIEGNNRWNDWWYYEQIGKLPYRSGKACNHWELYRDDIQLMTSLGYNAYRFSIEWSRLFPEENKFNEDAFMKYREIIDLLLTRGITPLVTLHHFTSPLWFMKKGGFLREENLKHWEKYIEKVAELLEKVKLVATFNEPMVYVMMGYLTAYWPPFIRSPFKAFKVAANLLKAHAIAYELLHGKFKVGIVKNIPIILPASDKERDRKAAEKADNLFNWHFLDAIWSGKYRGVFKTYRIPQSDADFIGVNYYTASEVRHTWNPLKFFFEVKLADISERKTQMGWSVYPKGIYMALKKASRYGRPLYITENGIATLDDEWRVEFIIQHLQYVHKAIEDGLDVRGYFYWSFMDNYEWKEGFGPRFGLVEVDYQTFERRPRKSAYVYGEIARSKEIKDELLKRYGLPELQL
optimum temperature: over 100 °C
